# Assay results taken from publication doi:10.1101/2020.08.14.246132.
# Changes are numbered by the printed parent chain. These are yes or no findings as the source states them, for the method shown. Binding seen in cells or lysates may run through a third protein. Some binding calls cover weakened binding; strength is not graded here. Where a sequence is shown, tags or fusion partners need not be part of it.
# How the values were obtained:
# [1] = target: T1, NLRP1 E1322R (interface IIIa mutant), full length, FLAG-tagged (human) (UniProt Q9C000); test: co-IP
# T1 sequence: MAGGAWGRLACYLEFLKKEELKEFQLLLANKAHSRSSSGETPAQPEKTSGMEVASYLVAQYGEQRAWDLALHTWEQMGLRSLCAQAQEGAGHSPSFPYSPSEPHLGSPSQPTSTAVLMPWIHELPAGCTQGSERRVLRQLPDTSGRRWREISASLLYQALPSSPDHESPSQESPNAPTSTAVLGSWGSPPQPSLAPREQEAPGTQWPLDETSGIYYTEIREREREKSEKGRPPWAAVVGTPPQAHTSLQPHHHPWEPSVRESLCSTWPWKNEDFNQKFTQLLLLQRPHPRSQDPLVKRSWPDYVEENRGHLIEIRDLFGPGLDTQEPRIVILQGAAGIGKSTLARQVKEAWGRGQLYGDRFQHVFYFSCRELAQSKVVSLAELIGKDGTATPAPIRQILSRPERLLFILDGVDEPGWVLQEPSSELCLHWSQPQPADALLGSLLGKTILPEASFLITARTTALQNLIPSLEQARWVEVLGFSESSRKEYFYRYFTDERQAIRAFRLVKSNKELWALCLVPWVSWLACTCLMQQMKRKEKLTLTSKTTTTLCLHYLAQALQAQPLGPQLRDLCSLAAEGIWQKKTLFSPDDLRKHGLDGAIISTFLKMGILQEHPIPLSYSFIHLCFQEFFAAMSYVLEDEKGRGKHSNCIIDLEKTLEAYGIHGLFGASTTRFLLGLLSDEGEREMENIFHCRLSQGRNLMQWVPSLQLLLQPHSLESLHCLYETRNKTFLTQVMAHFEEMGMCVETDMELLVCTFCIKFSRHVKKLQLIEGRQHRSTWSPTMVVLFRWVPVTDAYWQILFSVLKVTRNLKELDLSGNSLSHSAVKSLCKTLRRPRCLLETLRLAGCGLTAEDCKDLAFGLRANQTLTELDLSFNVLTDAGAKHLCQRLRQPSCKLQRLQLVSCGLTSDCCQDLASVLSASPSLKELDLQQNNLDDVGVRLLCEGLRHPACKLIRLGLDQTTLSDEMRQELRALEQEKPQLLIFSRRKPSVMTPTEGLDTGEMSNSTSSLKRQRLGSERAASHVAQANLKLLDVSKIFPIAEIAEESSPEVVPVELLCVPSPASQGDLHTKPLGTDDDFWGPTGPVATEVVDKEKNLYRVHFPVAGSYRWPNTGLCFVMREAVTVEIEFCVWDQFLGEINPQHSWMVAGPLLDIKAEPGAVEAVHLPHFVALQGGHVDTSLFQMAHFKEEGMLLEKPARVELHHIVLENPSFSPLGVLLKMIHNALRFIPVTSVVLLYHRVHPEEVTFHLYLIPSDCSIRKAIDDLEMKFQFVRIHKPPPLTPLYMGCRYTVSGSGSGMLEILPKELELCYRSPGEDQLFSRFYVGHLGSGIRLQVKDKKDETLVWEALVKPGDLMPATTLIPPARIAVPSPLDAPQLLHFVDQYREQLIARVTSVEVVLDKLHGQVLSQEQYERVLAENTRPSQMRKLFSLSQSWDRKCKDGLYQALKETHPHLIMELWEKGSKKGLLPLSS
# [2] = target: T2, NLRP1 K1277E (interface IIIb mutant), full length, FLAG-tagged (human) (UniProt Q9C000); test: co-IP
# T2 sequence: T1 sequence with K1277E, R1322E
substance,measurement,setting,value
"DPP9, short isoform, N-terminal His tag (His-TEV-DPP9), wild type, for co-immunoprecipitation (from UniProt Q86TI2-1 1-863) (enzyme)",binding,[1],binds weakly
same,binding,[2],binds weakly
